The values that follow come from paper PMC11733299.

These are yes or no findings as the source states them, for the method shown. Binding seen in cells or lysates may run through a third protein. Some entries that bind do so weakly or less than the wild type. Where a sequence is shown, tags or fusion partners need not be part of it.

This assay concerns the target T1, CPK1-Myc (Arabidopsis thaliana) (UniProt Q06850).
T1 sequence: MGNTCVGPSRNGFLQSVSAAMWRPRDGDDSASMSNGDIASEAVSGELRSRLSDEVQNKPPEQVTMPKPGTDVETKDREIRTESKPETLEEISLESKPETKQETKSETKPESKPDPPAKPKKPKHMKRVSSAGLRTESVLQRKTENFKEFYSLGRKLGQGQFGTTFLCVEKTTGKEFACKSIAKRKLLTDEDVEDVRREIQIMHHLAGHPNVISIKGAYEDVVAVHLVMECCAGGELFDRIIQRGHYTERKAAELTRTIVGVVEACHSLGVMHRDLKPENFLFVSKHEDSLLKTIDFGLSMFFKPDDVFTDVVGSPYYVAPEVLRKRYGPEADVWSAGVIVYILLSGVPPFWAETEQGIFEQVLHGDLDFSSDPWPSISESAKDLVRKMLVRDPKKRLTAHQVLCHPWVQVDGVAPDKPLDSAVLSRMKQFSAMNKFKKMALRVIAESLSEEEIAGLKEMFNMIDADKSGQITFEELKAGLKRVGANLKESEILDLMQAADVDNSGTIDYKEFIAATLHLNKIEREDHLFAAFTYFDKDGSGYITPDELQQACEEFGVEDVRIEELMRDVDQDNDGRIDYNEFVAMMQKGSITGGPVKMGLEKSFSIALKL
Kind of assay: co-IP; co-expression in N. benthamiana leaves; extract in 150 mM NaCl, 1 mM EDTA, 0.05% NP40, 20 mM Tris-HCl pH 7.5; anti-Myc agarose 6 h at 4 °C; blots with anti-Myc and anti-Flag.

B1: CNGC5-N-Venus-Flag (domain or fragment, UniProt Q8RWS9 1-102)
chain: MAGKRENFVRVDDLDSRLPSSSVAFQQNYASNFSGQLHPIHASNETSRSFKKGIQKGSKGLKSIGRSLGFGVYRAVFPEDLKVSEKKIFDPQDKFLLYCNKL
Take B1: the binding result is “binds”.

B2: CNGC6-N-Venus-Flag (domain or fragment, UniProt O82226 1-116)
chain: MFDTCGPKGVKSQVISGQRENFVRLDSMDSRYSQSSETGLNKCTLNIQGGPKRFAQGSKASSGSFKKGFRKGSEGLWSIGRSIGLGVSRAVFPEDLEVSEKKIFDPQDKFLLLCNK
With B2, the binding entry is given as “binds”.
